Data reported in PMC7819943, “Rice protein-binding microarrays: a tool to detect cis-acting elements near promoter regions in rice”.
The other results are listed elsewhere or left out.

Protein sequences, listed by entry. Tags and fused reporters are not part of them.
UniProt Q0JBA9, entry or part of it: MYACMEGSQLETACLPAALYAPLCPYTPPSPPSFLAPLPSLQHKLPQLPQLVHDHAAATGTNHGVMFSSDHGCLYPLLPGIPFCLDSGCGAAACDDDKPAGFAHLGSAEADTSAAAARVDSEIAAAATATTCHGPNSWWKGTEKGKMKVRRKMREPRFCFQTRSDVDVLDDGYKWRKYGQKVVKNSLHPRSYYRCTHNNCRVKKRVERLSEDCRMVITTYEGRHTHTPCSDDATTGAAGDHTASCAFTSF

molecular target: OsWRKY34 (Oryza sativa, UniProt Q0JBA9 1-250); test: protein-binding microarray (RPBM); PBS, 2% BSA, 51.3 ng/ul salmon testes DNA, 50 uM zinc acetate, 200 nM TF, 25 C, 1 h; high values mean tight binding; details: protein: recombinant; tags: N-terminal polyhistidine and DsRed monomer fusion (pET32a); label: CyDye5-dUTP incorporated in the synthesized complementary strand; 3' TTTTT single-stranded linker to array surface; dsDNA, one strand shown
How it was run: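 Transcription factors, each fused N-terminally to a polyhistidine tag and DsRed, were expressed in E. coli BL21-CodonPlus and purified on Ni–NTA. A custom Agilent array was made double-stranded by primer extension with Cy5-dUTP and blocked with 2% BSA. It was incubated with 200 nM protein in PBS, 2% BSA, salmon testes DNA and 50 µM zinc acetate at 25 °C for 1 h, then washed. The binding signal is per-feature fluorescence intensity (arbitrary units) read on an Axon 4000B scanner.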

Sequence | binding signal
AGGTACAATAATCTGCCATTTTTTTATTTGTTATTTACAACGGAGTCACCTAGTGCAG | 10700 fluorescence intensity (a.u.)
TAATTTTTTATTCGTATCTGAAAACCACTTTCGACATCCACGGAGTCACCTAGTGCAG | 8570 fluorescence intensity (a.u.)
GCAGGTCAAGCGGTCACCCTCACTCCACCATTGTCATCTTCGGAGTCACCTAGTGCAG | 9440 fluorescence intensity (a.u.)
CGCACGCGTCTCCCAATTCCCAAACTTTCCCTTATTATTCCGGAGTCACCTAGTGCAG | 9320 fluorescence intensity (a.u.)
ACATCCCGTCCATTGCTCCTAGCACACGCATGCGTCGCCACGGAGTCACCTAGTGCAG | 8720 fluorescence intensity (a.u.)
TCCTCCCATCTCATTCTCATCTCACCATCCCACGCTTTTGCGGAGTCACCTAGTGCAG | 9570 fluorescence intensity (a.u.)
CGACGCGTGGACGCATCCTGTCCATCCATCACCTCCACCGCGGAGTCACCTAGTGCAG | 9560 fluorescence intensity (a.u.)
TATTTTTACCTTTTGCATCACTTTGGACCACCCAACACACCGGAGTCACCTAGTGCAG | 9830 fluorescence intensity (a.u.)
CGAGGTTCTTTGCTTCATACTTTTTTTTGGTGTTCTACTTCGGAGTCACCTAGTGCAG | 11200 fluorescence intensity (a.u.)
TCCACATTCTGAAAACTTCAGTCTTTCTCTCTTCAGCATCCGGAGTCACCTAGTGCAG | 9290 fluorescence intensity (a.u.)
TTCCTGTCACCTGAATATGGCTCCTTAGCATGAATATCTCCGGAGTCACCTAGTGCAG | 8240 fluorescence intensity (a.u.)
AGAACATGACTCTATTCTGATTCTCTTATCCTTTCTAATGCGGAGTCACCTAGTGCAG | 8250 fluorescence intensity (a.u.)
CCCGCCACCTCTACCTCGATGCGGCCCCGAATCCACCTGCCGGAGTCACCTAGTGCAG | 9060 fluorescence intensity (a.u.)
TTTCCATTTTTCTTACTGCTCCACATAATTCCTATTTCCCCGGAGTCACCTAGTGCAG | 10200 fluorescence intensity (a.u.)
CCAAGAGTCTGCTACGCTCCATCACCCCAACACATCTATTCGGAGTCACCTAGTGCAG | 8840 fluorescence intensity (a.u.)
GCTGTTCAGTTTTAGGGGCAAAATATTCACCAAAACTTGTCGGAGTCACCTAGTGCAG | 8030 fluorescence intensity (a.u.)
TTTCGATTGTTGTTTATTTTCCAGCATTAGTTTTTAAATCCGGAGTCACCTAGTGCAG | 8320 fluorescence intensity (a.u.)
CAGCTCGCACAACGATCTTTCACCACCACTGCACGAAAACCGGAGTCACCTAGTGCAG | 8480 fluorescence intensity (a.u.)
AGCACCGACCGCCAGTAACTGTTTTTTTTTTCCCTCGTGGCGGAGTCACCTAGTGCAG | 9320 fluorescence intensity (a.u.)
ATCATTTTTCGGTGTTTACTTTGTTGGATCCAGCGGAGAACGGAGTCACCTAGTGCAG | 8390 fluorescence intensity (a.u.)
AGCCCACTGTCCATAATCTCCAGCCCAGTAACAGCCCAATCGGAGTCACCTAGTGCAG | 8770 fluorescence intensity (a.u.)
GTTTATTGTCCTTTCAGGTTTGCTGTCATTTTCTCGGGAACGGAGTCACCTAGTGCAG | 9400 fluorescence intensity (a.u.)
GCACCCATATATTTGTAAGGCAAAGGACAAGTTGCATTCTCGGAGTCACCTAGTGCAG | 9670 fluorescence intensity (a.u.)
CTACCTCCCCACATCTCATCCATGCATTATGTTCCCTTCACGGAGTCACCTAGTGCAG | 8250 fluorescence intensity (a.u.)
AAACCTTCGCTCTAAATCTTCCTGCTTTTTATCCCAATTTCGGAGTCACCTAGTGCAG | 8420 fluorescence intensity (a.u.)
TCCAATTTTGGCCTCAATTTTCCTTTCATTCATAATGGGCCGGAGTCACCTAGTGCAG | 8290 fluorescence intensity (a.u.)
CTTAATTAATCATATGCTAATCGTATTTCTCGTTTTATGTCGGAGTCACCTAGTGCAG | 10100 fluorescence intensity (a.u.)

Sequence | binding signal
CCTATTTTTTGCTGGTTGGAGTTCTTCTATTTCTCTTTTACGGAGTCACCTAGTGCAG | 11300 fluorescence intensity (a.u.)
ATGGGCTTTCCTGCACTAGTGAATTGTGGTAATTCAGATACGGAGTCACCTAGTGCAG | 8070 fluorescence intensity (a.u.)
TTCCCCTTGCTCTTGCATTTGCTGCCGCTCTTCGCCTCTTCGGAGTCACCTAGTGCAG | 9270 fluorescence intensity (a.u.)
TCTAACCATTGACTTTTTTCCCCTGCCCGCTCTTACACGGCGGAGTCACCTAGTGCAG | 15100 fluorescence intensity (a.u.)
CCCAGTTTAGCACAGTTTTCATCTAGATTTGTCGTCTCGTCGGAGTCACCTAGTGCAG | 8630 fluorescence intensity (a.u.)
TTATCTCTAGCTTGTTCCAATCTCTGCATTTGAATGACTACGGAGTCACCTAGTGCAG | 9730 fluorescence intensity (a.u.)
GGTTAATTGTACCTGGTCGCCTGATCGCGTCACTTTACGCCGGAGTCACCTAGTGCAG | 8850 fluorescence intensity (a.u.)
CTCTTCCTCTGCATCTTCCACTTCCTCTTCCTCTTTTCTCCGGAGTCACCTAGTGCAG | 8470 fluorescence intensity (a.u.)
AATCCCACGCGATTCGTCGTCGATCTGGCCACGGCACTCCCGGAGTCACCTAGTGCAG | 8520 fluorescence intensity (a.u.)
TATTCGCCATTTTTTTCAGTTTTCTTAATCACGTCATTTACGGAGTCACCTAGTGCAG | 10100 fluorescence intensity (a.u.)
AAGATCGGTCATCGCTTTTCCTTGTTCTTCTTAGTTCATCCGGAGTCACCTAGTGCAG | 12700 fluorescence intensity (a.u.)
ATCGCTACATTCCTGGAGGCATCCAGTTGATTCCACTCAACGGAGTCACCTAGTGCAG | 10200 fluorescence intensity (a.u.)
CTGTCCAACTGCCAGTCAGCTAGCCCCAAGTGTATACTCTCGGAGTCACCTAGTGCAG | 8620 fluorescence intensity (a.u.)
GTCCATCACGGCCGGACAAACCTCGCCGCTTCGCTTCGCTCGGAGTCACCTAGTGCAG | 8220 fluorescence intensity (a.u.)
CATTAAAGCTTTTTTACACACGTAAACTTCTAACTTTTTCCGGAGTCACCTAGTGCAG | 10100 fluorescence intensity (a.u.)
CGTCGCCTTCGTCTTCGTCTTCGTCGTCGTCCTCATCATGCGGAGTCACCTAGTGCAG | 9100 fluorescence intensity (a.u.)
GTCAAGCTACGCCGCTCTGGCCGTCGGCCACTCCGCCCCACGGAGTCACCTAGTGCAG | 8580 fluorescence intensity (a.u.)
TTCGTTTTCGTTTTCTTTCCCCTTTTTCTGTCGGTTAATTCGGAGTCACCTAGTGCAG | 10100 fluorescence intensity (a.u.)
GTATTCTATTTTTTCATTCTCATATATTTGTTATCGCACACGGAGTCACCTAGTGCAG | 10300 fluorescence intensity (a.u.)
TTCAGTTTAGATACTTTTCTCGATATTCGTTAGCATATATCGGAGTCACCTAGTGCAG | 8430 fluorescence intensity (a.u.)
GTCGTGTATATATACGCATTCATGTGTGTCAAGGCAATATCGGAGTCACCTAGTGCAG | 8300 fluorescence intensity (a.u.)
ACTACTTAATTTAGCTTATTTTGCATACTTGGTTTCTACACGGAGTCACCTAGTGCAG | 10000 fluorescence intensity (a.u.)
AATCCTGTTGTTGTGGTCTATCGCTTACAACTCTAATACTCGGAGTCACCTAGTGCAG | 8860 fluorescence intensity (a.u.)
TAATACTCCCTCCGTATTTTAATGTATGATGCCGTTGACTCGGAGTCACCTAGTGCAG | 10600 fluorescence intensity (a.u.)
CAACCCGGCCGGCCACCTTTTTCCTGTCGATCGTGTGTTGCGGAGTCACCTAGTGCAG | 8400 fluorescence intensity (a.u.)
TCCGCCACACCTTTTACTACCGATGGAACTGAGTTTTACTCGGAGTCACCTAGTGCAG | 8130 fluorescence intensity (a.u.)
TTGCACATTGGATCATTCTTGTGTTCCATGCCTCTAACCTCGGAGTCACCTAGTGCAG | 8920 fluorescence intensity (a.u.)

Copied from the list:
For binding signal, AAGATCGGTCATCGCTTTTCCTTGTTCTTCTTAGTTCATCCGGAGTCACCTAGTGCAG is entered as 12700 fluorescence intensity (a.u.)
For binding signal, GTCGTGTATATATACGCATTCATGTGTGTCAAGGCAATATCGGAGTCACCTAGTGCAG is entered as 8300 fluorescence intensity (a.u.)
For binding signal, TTGCACATTGGATCATTCTTGTGTTCCATGCCTCTAACCTCGGAGTCACCTAGTGCAG is entered as 8920 fluorescence intensity (a.u.)
For binding signal, CCAAGAGTCTGCTACGCTCCATCACCCCAACACATCTATTCGGAGTCACCTAGTGCAG is entered as 8840 fluorescence intensity (a.u.)
